Measurements as given in patent US20140296501.

Molecular target: EGFR (ERBB1) (UniProt P00533)
Experiment: binding assay
Conditions: single-stranded DNA

GAGTTGTATGGGGTCGGATTGTTGGATTCTTTAAGTTCGG [EGFR aptamer SEQ ID NO: 7]
binding result (N = BndU [n positions 4,5,7,9,14,19,20,22,23,27,28,30,31,32,36,37 = modified dU], same SELEX pool as SEQ ID NO: 4): binds

ATCGAGGTTGTGGGTCGGATTGTTGGATTCTTTAAGTTGGGAACACCAACCGAGAACG [EGFR aptamer SEQ ID NO: 3 (same as SEQ ID NO: 1)]
binding result (N = BndU [n positions 2,8,9,11,15,20,21,23,24,28,29,31,32,33,37,38 = modified dU], binds only EGFR not bound by cetuximab or panitumumab, variant of EGFR aptamer SEQ ID NO: 4): binds

ATCGAGGTTGTGGGTCGGATTGTTGGATTCTTTAAGTTGG [EGFR aptamer SEQ ID NO: 6 (40-mer selected region)]
binding result (N = BndU [n positions 2,8,9,11,15,20,21,23,24,28,29,31,32,33,37,38 = modified dU], 40-mer selected region retains binding affinity, variant of EGFR aptamer SEQ ID NO: 4): binds
